# Data as given in PubChem BioAssay AID1053208 (Peter MacCallum Cancer Centre, 2014).
# Aim: 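Genes whose silencing cuts survival of bone tumour cells only with doxorubicin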 (primary screen)
# Cells: mouse osteosarcoma cells, early-passage culture from an engineered mouse model of fibroblastic bone tumour
# Reagents: siRNA pool against mouse genes, 40 nM
# Time to read-out: about 120 h (48 h before drug, then 72 h with drug)
# Treatment: doxorubicin 100 nM for 72 h, roughly 30-40% inhibitory dose
# Read-out: 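Viability read as ATP luminescence after 72 h of 100 nM doxorubicin or none, duplicate wells averaged, scaled to non-targeting siRNA, then expressed as robust z-scores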
# Scale: viability z-score with doxorubicin: higher = more viable cells under doxorubicin; viability z-score without drug: higher = more viable cells with knock-down alone
# Call rule: 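Called active if knock-down leaves viability unchanged without drug (z within -2 to 2) but lowers it with doxorubicin (z at or under -2)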
# In all, the deposit lists about 17,000 reagents; shown is a random part of them. 788 of them (4.7%) count as active. 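Calls rest on z-score classes alone; an extra cut-off of viability at most 70% of control was not applied to them.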 A reagent listed more than once was tested more than once; the source does not tell the runs apart. Further read-outs or replicates are left out here.
Target gene,PubChem SID,combined z-score class,viability z-score with doxorubicin,viability z-score without drug,activity call
Fhip1a,SID152337591,no change with or without drug,0,-0.17,inactive
Nr1d1,SID152282852,no change with or without drug,0.22,0.67,inactive
Amy2a5,SID152324597,no change with or without drug,0.45,0.17,inactive
Mag,SID152318255,no change with or without drug,-1.12,-1.18,inactive
Gpr108,SID152306679,no change with or without drug,-0.22,0.17,inactive
Slc25a31,SID152265791,no change with or without drug,-0.67,-1.85,inactive
Parva,SID152275851,no change with or without drug,-0.45,-0.51,inactive
9230110G02RIK,SID152276176,high cell count with doxorubicin only,2.02,0.34,inactive
Cblc,SID152321397,no change with or without drug,-0.11,-0.17,inactive
Mrgprx1,SID152267928,no change with or without drug,-0.34,-0.17,inactive
Mrgprx1,SID152267928,no change with or without drug,-0.56,-0.84,inactive
Dppa4,SID152319856,no change with or without drug,0,0.17,inactive
Scamp3,SID152330111,no change with or without drug,1.57,1.18,inactive
Pi16,SID152289071,no change with or without drug,0.11,-0.84,inactive
Cdyl2,SID152282089,no change with or without drug,-1.57,-0.84,inactive
Phf21a,SID152334378,no change with or without drug,-0.45,-0.17,inactive
S100a4,SID152283327,no change with or without drug,-0.9,1.18,inactive
Gcgr,SID152335401,no change with or without drug,-0.67,-0.51,inactive
Ido2,SID152316341,no change with or without drug,-0.22,-1.85,inactive
Rps4l,SID152292086,no change with or without drug,0.22,-0.51,inactive
Mki67,SID152283240,no change with or without drug,-0.11,-1.01,inactive
H2-Q2,SID152281385,no change with or without drug,-1.35,-1.52,inactive
Ltap1,SID152284802,no change with or without drug,-0.67,1.35,inactive
Rad54l,SID152279092,no change with or without drug,1.35,0.51,inactive
Cldnd1,SID152338241,high cell count without drug only,0.79,2.36,inactive
Zfp329,SID152302454,no change with or without drug,-0.9,-1.52,inactive
Syp,SID152291208,no change with or without drug,-0.45,0.17,inactive
Erbb3,SID152278219,no change with or without drug,0.9,-1.18,inactive
Nsd1,SID152278233,no change with or without drug,0.9,0.67,inactive
Cyp3a13,SID152335959,no change with or without drug,0,-0.17,inactive

Part of the list above, reduced to “viability z-score without drug”:
Ido2 [SID152316341]: -1.85
Rps4l [SID152292086]: -0.51
Mki67 [SID152283240]: -1.01
H2-Q2 [SID152281385]: -1.52

More reagents follow:
Target gene,PubChem SID,combined z-score class,viability z-score with doxorubicin,viability z-score without drug,activity call
Atg16l1,SID152265552,no change with or without drug,-0.22,-0.17,inactive
Dhx58,SID152290892,no change with or without drug,0.22,1.01,inactive
Tenm1,SID152292987,no change with or without drug,-0.45,-1.52,inactive
Lrrtm3,SID152323322,no change with or without drug,1.46,0.17,inactive
Pdgfrb,SID152339962,no change with or without drug,0.11,-0.51,inactive
3300002I08Rik,SID152309394,no change with or without drug,-1.35,-0.51,inactive
Dcdc5,SID152337663,no change with or without drug,0.9,0.84,inactive
Insm1,SID152281985,no change with or without drug,0.9,0.34,inactive
Terf2ip,SID152314397,no change with or without drug,-0.22,1.52,inactive
Paqr6,SID152326297,no change with or without drug,-0.22,0.84,inactive
Tmem91,SID152259829,no change with or without drug,0.9,1.01,inactive
Etv4,SID152263765,no change with or without drug,0.9,1.18,inactive
Trim31,SID152321561,high cell count with doxorubicin only,2.14,1.52,inactive
Ppp1r9a,SID152299817,no change with or without drug,0.9,0.51,inactive
Anp32a,SID152259281,no change with or without drug,0,-0.51,inactive
Abcf2,SID152307660,no change with or without drug,0,-1.18,inactive
Ppp1r12b,SID152260055,no change with or without drug,-1.35,-0.51,inactive
Vmn1r54,SID152267210,high cell count without drug only,1.12,2.19,inactive
Stard3,SID152293342,no change with or without drug,1.12,-1.01,inactive
Ppcs,SID152273247,no change with or without drug,0,1.52,inactive
Prss44,SID152287778,no change with or without drug,-1.8,1.18,inactive
Mrgprb1,SID152300845,no change with or without drug,1.12,-0.51,inactive
Mkks,SID152295134,no change with or without drug,-0.45,1.52,inactive
Serpinb13,SID152324662,no change with or without drug,0.9,1.69,inactive
Or13p5,SID152318612,no change with or without drug,0.79,0.84,inactive
Nupr2,SID152297505,no change with or without drug,0,0.51,inactive
Msi1,SID152265006,no change with or without drug,-0.45,-1.35,inactive
Chmp1b,SID152310173,no change with or without drug,1.12,1.69,inactive
Bbs7,SID152274786,no change with or without drug,0.45,0.34,inactive
Pdlim2,SID152337995,no change with or without drug,-0.9,-1.01,inactive
Cdca5,SID152288017,no change with or without drug,1.35,0.17,inactive
Rbms1,SID152269807,no change with or without drug,-1.12,0,inactive
Gfra3,SID152329089,no change with or without drug,-1.8,-0.17,inactive
